± gives the standard deviation of the averaged measurements. The entries are a selection whose mix differs from that of the whole data set.
Compound: Nc1ncnc2c1ncn2[C@@H]1O[C@H](COP(=O)(O)OP(=O)(O)OP(=O)(O)O)[C@@H](O)[C@H]1O [adenosine triphosphate]
Experiment: NP40-soluble protein abundance relative to vehicle (solubility fold change) (ratio); higher = more soluble protein in presence of ATP
How it was run: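 Values are fold changes against the detergent-processed vehicle, based on vsn-normalised intensities. Jurkat crude lysate was treated at eight concentrations from 0.1 to 10 mM (10 min at room temperature, then 3 min at 37 °C), solubilised with 0.8% NP40 and benzonase, ultracentrifuged and analysed by TMT-labelled LC-MS/MS over three independent experiments.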

Sequences of proteins named here, by UniProt entry; tags and fusion partners are left off. A change or cut given only in a name is not applied to a line headed by its entry.
UniProt Q6FIF0: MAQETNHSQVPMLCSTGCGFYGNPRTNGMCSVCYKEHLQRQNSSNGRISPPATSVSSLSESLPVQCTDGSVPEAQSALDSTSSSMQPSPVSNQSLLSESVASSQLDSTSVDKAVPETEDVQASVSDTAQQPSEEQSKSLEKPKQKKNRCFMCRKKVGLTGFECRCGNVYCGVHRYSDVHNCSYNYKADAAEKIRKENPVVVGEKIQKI
UniProt Q5VYS8: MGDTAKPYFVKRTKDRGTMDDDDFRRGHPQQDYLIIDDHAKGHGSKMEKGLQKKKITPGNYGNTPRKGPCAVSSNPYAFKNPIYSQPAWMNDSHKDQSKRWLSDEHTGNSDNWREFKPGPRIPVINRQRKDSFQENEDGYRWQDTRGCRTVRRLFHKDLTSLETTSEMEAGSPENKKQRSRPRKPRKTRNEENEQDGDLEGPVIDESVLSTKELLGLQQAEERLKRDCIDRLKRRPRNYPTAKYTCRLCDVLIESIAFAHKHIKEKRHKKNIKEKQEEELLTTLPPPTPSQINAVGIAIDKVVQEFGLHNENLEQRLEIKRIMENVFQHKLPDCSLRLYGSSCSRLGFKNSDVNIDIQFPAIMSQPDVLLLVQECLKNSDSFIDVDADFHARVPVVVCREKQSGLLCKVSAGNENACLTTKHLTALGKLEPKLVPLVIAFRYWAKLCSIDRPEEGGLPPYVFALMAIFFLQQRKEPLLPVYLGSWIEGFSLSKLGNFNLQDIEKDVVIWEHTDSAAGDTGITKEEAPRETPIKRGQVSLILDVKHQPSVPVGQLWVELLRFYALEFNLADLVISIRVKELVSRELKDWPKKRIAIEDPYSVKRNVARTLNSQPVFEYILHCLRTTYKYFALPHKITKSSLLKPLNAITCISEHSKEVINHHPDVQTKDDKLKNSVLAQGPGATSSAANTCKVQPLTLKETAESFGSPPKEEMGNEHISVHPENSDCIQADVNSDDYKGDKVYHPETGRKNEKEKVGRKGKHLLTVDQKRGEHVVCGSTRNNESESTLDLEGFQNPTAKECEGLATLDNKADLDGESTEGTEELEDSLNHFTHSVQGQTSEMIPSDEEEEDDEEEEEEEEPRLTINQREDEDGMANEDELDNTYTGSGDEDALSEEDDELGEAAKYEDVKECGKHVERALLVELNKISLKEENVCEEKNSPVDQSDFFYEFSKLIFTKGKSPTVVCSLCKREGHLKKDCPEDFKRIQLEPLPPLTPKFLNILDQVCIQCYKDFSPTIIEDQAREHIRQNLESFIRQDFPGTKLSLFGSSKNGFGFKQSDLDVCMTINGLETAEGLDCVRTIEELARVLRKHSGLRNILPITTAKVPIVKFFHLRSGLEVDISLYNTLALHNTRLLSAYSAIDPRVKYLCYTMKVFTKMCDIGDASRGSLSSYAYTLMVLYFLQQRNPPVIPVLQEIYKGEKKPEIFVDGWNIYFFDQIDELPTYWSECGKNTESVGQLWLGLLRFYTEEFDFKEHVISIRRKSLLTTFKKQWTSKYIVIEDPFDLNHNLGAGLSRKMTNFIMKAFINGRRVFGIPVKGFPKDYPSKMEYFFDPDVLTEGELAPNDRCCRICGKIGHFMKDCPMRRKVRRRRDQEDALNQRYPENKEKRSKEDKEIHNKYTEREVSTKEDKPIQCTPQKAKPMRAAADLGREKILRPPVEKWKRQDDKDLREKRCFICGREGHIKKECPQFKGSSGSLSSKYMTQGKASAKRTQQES
UniProt Q5SWX8: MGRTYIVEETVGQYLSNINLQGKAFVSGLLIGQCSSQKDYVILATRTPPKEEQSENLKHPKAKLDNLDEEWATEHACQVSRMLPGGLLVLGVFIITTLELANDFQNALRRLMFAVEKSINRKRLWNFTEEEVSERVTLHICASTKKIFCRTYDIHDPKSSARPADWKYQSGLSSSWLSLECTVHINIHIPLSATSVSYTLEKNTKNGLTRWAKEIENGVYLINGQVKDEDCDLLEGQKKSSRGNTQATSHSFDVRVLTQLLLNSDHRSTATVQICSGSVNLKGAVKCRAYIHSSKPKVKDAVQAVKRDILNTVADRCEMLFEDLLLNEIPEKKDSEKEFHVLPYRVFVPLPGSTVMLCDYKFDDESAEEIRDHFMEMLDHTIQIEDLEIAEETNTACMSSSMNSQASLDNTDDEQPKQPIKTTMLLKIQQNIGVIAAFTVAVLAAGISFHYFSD
UniProt Q6P1N0: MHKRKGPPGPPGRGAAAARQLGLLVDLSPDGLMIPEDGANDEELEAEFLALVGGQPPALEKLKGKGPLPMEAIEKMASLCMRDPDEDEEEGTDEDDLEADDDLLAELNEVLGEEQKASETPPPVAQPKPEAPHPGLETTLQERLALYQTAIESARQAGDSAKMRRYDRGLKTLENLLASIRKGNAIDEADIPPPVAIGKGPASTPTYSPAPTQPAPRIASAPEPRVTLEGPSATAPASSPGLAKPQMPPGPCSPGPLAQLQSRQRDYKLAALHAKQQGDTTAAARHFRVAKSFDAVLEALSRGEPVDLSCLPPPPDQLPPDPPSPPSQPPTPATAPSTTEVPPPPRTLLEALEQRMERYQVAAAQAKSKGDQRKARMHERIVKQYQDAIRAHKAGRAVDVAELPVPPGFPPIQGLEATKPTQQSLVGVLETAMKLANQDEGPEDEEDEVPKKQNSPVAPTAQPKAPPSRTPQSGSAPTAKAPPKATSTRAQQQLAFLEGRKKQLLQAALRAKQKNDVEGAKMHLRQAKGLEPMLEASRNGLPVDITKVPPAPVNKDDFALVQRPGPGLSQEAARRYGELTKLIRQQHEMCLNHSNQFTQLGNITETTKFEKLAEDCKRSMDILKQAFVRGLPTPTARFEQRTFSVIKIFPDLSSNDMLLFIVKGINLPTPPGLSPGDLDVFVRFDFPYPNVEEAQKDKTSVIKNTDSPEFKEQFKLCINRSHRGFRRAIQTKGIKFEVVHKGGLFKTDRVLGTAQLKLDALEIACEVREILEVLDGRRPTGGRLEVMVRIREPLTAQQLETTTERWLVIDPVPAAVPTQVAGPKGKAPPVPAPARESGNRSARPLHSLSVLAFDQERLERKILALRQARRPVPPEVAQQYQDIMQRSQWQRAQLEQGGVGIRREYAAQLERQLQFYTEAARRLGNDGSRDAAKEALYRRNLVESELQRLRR
UniProt Q53H47: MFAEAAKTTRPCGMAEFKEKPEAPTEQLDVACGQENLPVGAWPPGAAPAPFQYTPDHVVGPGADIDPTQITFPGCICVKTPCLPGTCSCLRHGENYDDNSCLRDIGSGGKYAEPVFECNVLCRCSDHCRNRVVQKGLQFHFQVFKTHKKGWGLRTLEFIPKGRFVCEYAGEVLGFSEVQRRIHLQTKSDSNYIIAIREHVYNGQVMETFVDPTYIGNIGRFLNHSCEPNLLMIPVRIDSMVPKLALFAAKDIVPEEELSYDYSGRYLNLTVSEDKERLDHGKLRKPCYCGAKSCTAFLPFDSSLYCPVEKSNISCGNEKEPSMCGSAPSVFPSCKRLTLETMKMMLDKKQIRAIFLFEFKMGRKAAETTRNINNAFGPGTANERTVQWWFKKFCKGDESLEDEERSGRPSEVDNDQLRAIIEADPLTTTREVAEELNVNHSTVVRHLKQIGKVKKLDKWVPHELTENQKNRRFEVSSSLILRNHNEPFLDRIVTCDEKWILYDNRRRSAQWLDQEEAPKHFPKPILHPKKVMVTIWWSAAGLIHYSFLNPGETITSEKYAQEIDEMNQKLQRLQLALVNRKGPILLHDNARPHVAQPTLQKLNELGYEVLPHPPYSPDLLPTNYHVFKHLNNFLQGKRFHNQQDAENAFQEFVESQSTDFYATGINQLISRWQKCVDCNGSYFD
UniProt Q6NXT1: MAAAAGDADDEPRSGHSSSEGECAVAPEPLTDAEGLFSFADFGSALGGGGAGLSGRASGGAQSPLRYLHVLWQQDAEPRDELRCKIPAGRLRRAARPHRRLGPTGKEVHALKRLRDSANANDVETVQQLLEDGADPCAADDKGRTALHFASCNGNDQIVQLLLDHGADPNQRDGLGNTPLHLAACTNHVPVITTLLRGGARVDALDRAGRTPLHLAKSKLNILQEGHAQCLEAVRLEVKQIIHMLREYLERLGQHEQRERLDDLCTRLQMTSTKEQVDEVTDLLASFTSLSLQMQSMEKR
UniProt Q5UIP0: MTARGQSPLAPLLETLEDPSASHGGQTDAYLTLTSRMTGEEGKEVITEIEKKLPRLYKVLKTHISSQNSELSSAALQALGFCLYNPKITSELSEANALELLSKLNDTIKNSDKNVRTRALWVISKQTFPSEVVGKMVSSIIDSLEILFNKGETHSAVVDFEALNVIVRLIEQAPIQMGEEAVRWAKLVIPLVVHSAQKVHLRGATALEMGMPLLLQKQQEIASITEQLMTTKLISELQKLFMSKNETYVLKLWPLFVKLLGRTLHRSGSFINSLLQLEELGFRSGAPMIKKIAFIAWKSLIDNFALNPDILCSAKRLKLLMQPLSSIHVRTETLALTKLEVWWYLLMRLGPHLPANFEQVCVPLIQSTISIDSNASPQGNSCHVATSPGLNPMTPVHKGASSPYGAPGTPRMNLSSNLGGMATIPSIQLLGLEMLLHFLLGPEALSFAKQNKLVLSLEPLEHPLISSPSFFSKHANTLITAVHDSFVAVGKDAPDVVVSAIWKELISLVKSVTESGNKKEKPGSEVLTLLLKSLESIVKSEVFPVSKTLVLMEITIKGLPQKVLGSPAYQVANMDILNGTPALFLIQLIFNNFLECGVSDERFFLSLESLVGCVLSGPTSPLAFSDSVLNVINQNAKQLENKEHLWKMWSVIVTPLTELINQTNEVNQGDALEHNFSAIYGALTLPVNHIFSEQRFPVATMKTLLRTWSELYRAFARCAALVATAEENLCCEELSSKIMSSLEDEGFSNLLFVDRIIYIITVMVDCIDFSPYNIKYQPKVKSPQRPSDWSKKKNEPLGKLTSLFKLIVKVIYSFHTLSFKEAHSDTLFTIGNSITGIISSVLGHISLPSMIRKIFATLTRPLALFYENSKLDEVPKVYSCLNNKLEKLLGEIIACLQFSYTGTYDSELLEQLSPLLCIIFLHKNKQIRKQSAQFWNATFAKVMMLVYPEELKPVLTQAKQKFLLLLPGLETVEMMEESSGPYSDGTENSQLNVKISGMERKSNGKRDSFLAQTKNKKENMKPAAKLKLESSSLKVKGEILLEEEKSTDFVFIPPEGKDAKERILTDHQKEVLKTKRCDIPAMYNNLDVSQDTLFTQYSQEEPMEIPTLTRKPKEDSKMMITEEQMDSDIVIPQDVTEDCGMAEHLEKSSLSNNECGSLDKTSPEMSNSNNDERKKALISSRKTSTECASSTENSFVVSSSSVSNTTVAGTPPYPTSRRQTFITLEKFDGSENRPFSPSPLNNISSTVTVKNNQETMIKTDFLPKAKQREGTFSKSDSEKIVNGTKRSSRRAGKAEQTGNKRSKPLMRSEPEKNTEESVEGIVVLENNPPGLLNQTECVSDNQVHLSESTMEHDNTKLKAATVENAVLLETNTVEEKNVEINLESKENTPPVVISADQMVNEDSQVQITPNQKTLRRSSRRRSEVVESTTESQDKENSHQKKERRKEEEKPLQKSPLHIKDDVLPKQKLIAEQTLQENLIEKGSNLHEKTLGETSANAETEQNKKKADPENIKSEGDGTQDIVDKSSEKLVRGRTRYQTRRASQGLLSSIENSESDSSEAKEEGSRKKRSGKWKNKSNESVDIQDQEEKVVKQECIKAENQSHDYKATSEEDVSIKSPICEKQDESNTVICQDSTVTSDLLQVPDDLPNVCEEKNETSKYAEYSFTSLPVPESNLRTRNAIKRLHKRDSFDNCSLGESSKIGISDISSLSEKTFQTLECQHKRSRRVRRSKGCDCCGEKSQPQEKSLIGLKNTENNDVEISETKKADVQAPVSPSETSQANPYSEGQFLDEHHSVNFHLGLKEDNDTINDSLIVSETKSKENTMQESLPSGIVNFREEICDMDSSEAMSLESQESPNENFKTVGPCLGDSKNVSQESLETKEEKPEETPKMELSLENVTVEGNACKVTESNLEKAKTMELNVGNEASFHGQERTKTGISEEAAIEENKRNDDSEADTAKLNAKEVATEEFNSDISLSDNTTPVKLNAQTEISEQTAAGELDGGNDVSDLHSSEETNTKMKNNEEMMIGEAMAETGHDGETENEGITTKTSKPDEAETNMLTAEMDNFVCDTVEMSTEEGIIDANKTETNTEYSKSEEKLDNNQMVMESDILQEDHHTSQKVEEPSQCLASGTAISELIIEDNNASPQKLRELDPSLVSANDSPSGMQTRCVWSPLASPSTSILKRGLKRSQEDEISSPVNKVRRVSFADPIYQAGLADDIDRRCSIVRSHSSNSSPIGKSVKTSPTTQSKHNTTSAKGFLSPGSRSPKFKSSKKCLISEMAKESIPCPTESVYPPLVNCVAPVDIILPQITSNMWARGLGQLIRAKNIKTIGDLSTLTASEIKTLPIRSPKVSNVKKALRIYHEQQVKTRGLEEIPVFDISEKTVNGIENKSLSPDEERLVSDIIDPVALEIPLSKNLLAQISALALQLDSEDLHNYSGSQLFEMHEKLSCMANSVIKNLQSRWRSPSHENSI

| Target | NP40-soluble protein abundance (concentration: 1mM) | NP40-soluble protein abundance (concentration: 2mM) | NP40-soluble protein abundance (concentration: 4mM) | NP40-soluble protein abundance (concentration: 6mM) | NP40-soluble protein abundance (concentration: 8mM) | NP40-soluble protein abundance (concentration: 10mM) |
| --- | --- | --- | --- | --- | --- | --- |
| UniProt Q6FIF0 and related entries | 0.969 ± 0.1 | 0.955 ± 0.051 | 0.967 ± 0.028 | 0.983 ± 0.0099 | 0.918 ± 0.022 | 0.913 ± 0.045 |
| LMBRD2 (UniProt Q68DH5) | 1.02 ± 0.074 | 1.02 ± 0.063 | 1 ± 0.1 | 1.05 ± 0.083 | 0.998 ± 0.1 | 1.03 ± 0.13 |
| MBLAC2 (UniProt Q68D91) | 1.02 ± 0.1 | 1.03 ± 0.1 | 1.03 ± 0.1 | 0.971 ± 0.14 | 1.01 ± 0.086 | 1.02 ± 0.068 |
| C19orf54 (UniProt Q5BKX5) | 0.994 ± 0.031 | 1 ± 0.058 | 0.991 ± 0.032 | 0.969 ± 0.12 | 0.959 ± 0.092 | 0.975 ± 0.071 |
| ARHGAP17 (UniProt Q68EM7) | 0.986 ± 0.015 | 0.9922 ± 0.0051 | 0.978 ± 0.023 | 0.993 ± 0.015 | 0.985 ± 0.041 | 0.971 ± 0.025 |
| SFT2D3 (UniProt Q587I9) | 0.983 ± 0.079 | 1 ± 0.054 | 1.02 ± 0.049 | 1.03 ± 0.1 | 0.97 ± 0.041 | 1 ± 0.058 |
| UniProt Q66K74 and related entries | 0.991 ± 0.028 | 1.01 ± 0.016 | 1 ± 0.028 | 1.012 ± 0.0085 | 1.02 ± 0.07 | 1.01 ± 0.054 |
| UniProt Q6IA86 and related entries | 1.09 ± 0.17 | 1.07 ± 0.078 | 1.06 ± 0.087 | 0.971 ± 0.052 | 1.05 ± 0.051 | 1.04 ± 0.067 |
| UniProt Q5JS37 and related entries | 1.07 ± 0.062 | 1.08 ± 0.065 | 1.08 ± 0.045 | 1.06 ± 0.014 | 1.09 ± 0.1 | 1.1 ± 0.14 |
| MRM1 (UniProt Q6IN84) | 1.18 ± 0.093 | 1.22 ± 0.083 | 1.38 ± 0.091 | 1.45 ± 0.18 | 1.47 ± 0.23 | 1.53 ± 0.19 |
| UBAP2 (UniProt Q5T6F2) | 0.935 ± 0.063 | 0.961 ± 0.031 | 0.955 ± 0.019 | 1.01 ± 0.037 | 0.944 ± 0.02 | 0.967 ± 0.042 |
| UniProt Q5VYS8 and related entries | 1.07 ± 0.037 | 1.07 ± 0.019 | 1.07 ± 0.03 | 1.1 ± 0.063 | 1.09 ± 0.045 | 1.1 ± 0.064 |
| UniProt Q5SWX8 and related entries | 1 ± 0.079 | 1.05 ± 0.068 | 1.06 ± 0.032 | 0.989 ± 0.075 | 1.02 ± 0.051 | 1.03 ± 0.044 |
| UniProt Q6GMV3 | 0.92 ± 0.13 | 0.893 ± 0.095 | 0.933 ± 0.11 | 0.96 ± 0.14 | 0.885 ± 0.075 | 0.81 ± 0.097 |
| Q5TBM3 and related entries (UniProt Q92598) | 0.933 ± 0.08 | 0.973 ± 0.013 | 0.897 ± 0.087 | 1.01 ± 0.052 | 0.938 ± 0.037 | 0.931 ± 0.056 |
| TAF3 (UniProt Q5VWG9) | 1.02 ± 0.082 | 1.03 ± 0.05 | 1.05 ± 0.087 | 1.05 ± 0.042 | 1.06 ± 0.1 | 1.1 ± 0.066 |
| UniProt Q6P087 and related entries | 0.999 ± 0.11 | 1.03 ± 0.092 | 1.13 ± 0.12 | 1.13 ± 0.029 | 1.19 ± 0.19 | 1.35 ± 0.16 |
| CEP55 (UniProt Q53EZ4) | 1.03 ± 0.086 | 1.02 ± 0.067 | 1.04 ± 0.088 | 1.11 ± 0.039 | 1.11 ± 0.053 | 1.1 ± 0.057 |
| UniProt Q53HC9 and related entries | 0.978 ± 0.071 | 0.984 ± 0.064 | 0.962 ± 0.064 | 0.913 ± 0.05 | 0.975 ± 0.051 | 0.946 ± 0.054 |
| UniProt Q6P1N0 and related entries | 0.984 ± 0.019 | 0.981 ± 0.023 | 0.978 ± 0.014 | 1.013 ± 0.0088 | 0.976 ± 0.021 | 0.9799 ± 0.0089 |
| UniProt Q6P499 | 0.934 ± 0.028 | 0.968 ± 0.049 | 0.911 ± 0.034 | 0.947 ± 0.014 | 0.9003 ± 0.0041 | 0.915 ± 0.064 |
| SIGIRR (UniProt Q6IA17) | 0.972 ± 0.099 | 1.06 ± 0.089 | 0.98 ± 0.022 | 0.9643 ± 0.0095 | 0.946 ± 0.032 | 0.949 ± 0.025 |
| UniProt Q53H47 and related entries | 1.02 ± 0.014 | 0.9992 ± 0.0054 | 1.01 ± 0.025 | 1.02 ± 0.042 | 0.977 ± 0.029 | 1 ± 0.022 |
| XAF1 (UniProt Q6GPH4) | 1 ± 0.023 | 1 ± 0.042 | 0.998 ± 0.052 | 0.995 ± 0.047 | 1.02 ± 0.041 | 0.997 ± 0.041 |
| NOM1 (UniProt Q5C9Z4) | 1.1 ± 0.025 | 1.12 ± 0.019 | 1.17 ± 0.062 | 1.19 ± 0.087 | 1.23 ± 0.074 | 1.29 ± 0.072 |
| COQ5 (UniProt Q5HYK3) | 0.957 ± 0.042 | 0.942 ± 0.062 | 0.931 ± 0.082 | 0.896 ± 0.077 | 0.952 ± 0.04 | 0.9641 ± 0.0086 |
| ANKRD54 (UniProt Q6NXT1) | 0.946 ± 0.12 | 0.951 ± 0.067 | 0.976 ± 0.075 | 0.928 ± 0.073 | 0.914 ± 0.055 | 0.924 ± 0.071 |
| ANKRD16 (UniProt Q6P6B7) | 0.97 ± 0.091 | 1.05 ± 0.11 | 1.01 ± 0.023 | 0.942 ± 0.1 | 0.921 ± 0.11 | 0.958 ± 0.08 |
| RIF1 (UniProt Q5UIP0) | 1.04 ± 0.048 | 1.07 ± 0.04 | 1.06 ± 0.035 | 1.14 ± 0.087 | 1.09 ± 0.025 | 1.15 ± 0.025 |
| SLC25A24 (UniProt Q6NUK1) | 0.843 ± 0.1 | 0.894 ± 0.13 | 0.86 ± 0.08 | 0.829 ± 0.12 | 0.808 ± 0.08 | 0.881 ± 0.1 |

Some values from the list:
Value of ARHGAP17 (UniProt Q68EM7) under NP40-soluble protein abundance (concentration: 4mM): 0.978 ± 0.023
Value of MRM1 (UniProt Q6IN84) under NP40-soluble protein abundance (concentration: 2mM): 1.22 ± 0.083

From the supplement of paper PMC6411743
